Among the data in patent publication US20180052165A1 are binding values, retold here.

The chains behind the UniProt entries cited, without tags or fusion partners. Where a name states a change or a piece, a line headed by the entry shows the natural chain unless it says otherwise. Residues count along the entry.
UniProt O95832: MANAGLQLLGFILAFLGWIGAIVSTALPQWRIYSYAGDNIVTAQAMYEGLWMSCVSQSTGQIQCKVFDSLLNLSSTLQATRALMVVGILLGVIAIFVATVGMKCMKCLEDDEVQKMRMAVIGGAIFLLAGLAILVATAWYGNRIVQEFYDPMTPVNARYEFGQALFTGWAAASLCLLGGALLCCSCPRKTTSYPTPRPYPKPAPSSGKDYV
claudin-1 (CLDN1) extracellular loop mimetic peptide (Cldn1 53-80 with biotinylated C-terminus): residues 53-80 of O95832

These are yes or no findings as the source states them, for the method shown. Some results given as binding are weak or reduced against the parent protein; the word gives no strength.

First the molecules themselves.
B1: unlabeled RTS* peptide (peptide)
peptide: RTSPSSR
B2: phage-displayed peptide NNMKKIT (SEQ ID NO: 10) (peptide)
peptide: NNMKKIT
B3: phage-displayed peptide RPRQLQR (SEQ ID NO: 17) (peptide)
peptide: RPRQLQR
B4: phage-displayed peptide ITLSITQ (SEQ ID NO: 15) (peptide)
peptide: ITLSITQ
B5: phage-displayed peptide RSLTQQT (SEQ ID NO: 4) (peptide)
peptide: RSLTQQT
B6: phage-displayed peptide LLTISPK (SEQ ID NO: 20) (peptide)
peptide: LLTISPK
B7: phage-displayed peptide SLQHLRS (SEQ ID NO: 5) (peptide)
peptide: SLQHLRS
B8: phage-displayed peptide RTSPSSR (SEQ ID NO: 1) (peptide)
peptide: RTSPSSR
B9: phage-displayed peptide LQSLISK (SEQ ID NO: 11) (peptide)
peptide: LQSLISK
B10: phage-displayed peptide LNRIRRR (SEQ ID NO: 9) (peptide)
peptide: LNRIRRR
B11: phage-displayed peptide RHRRSPI (SEQ ID NO: 14) (peptide)
peptide: RHRRSPI
B12: phage-displayed peptide LLPMHMN (SEQ ID NO: 21) (peptide)
peptide: LLPMHMN
B13: phage-displayed peptide TSPMLSI (SEQ ID NO: 22) (peptide)
peptide: TSPMLSI
B14: phage-displayed peptide RIIHKNM (SEQ ID NO: 19) (peptide)
peptide: RIIHKNM
B15: phage-displayed peptide RPNKPRI (SEQ ID NO: 13) (peptide)
peptide: RPNKPRI
B16: phage-displayed peptide IQLKINS (SEQ ID NO: 6) (peptide)
peptide: IQLKINS
B17: phage-displayed peptide LRNNIRH (SEQ ID NO: 23) (peptide)
peptide: LRNNIRH
B18: phage-displayed peptide ITIRQHI (SEQ ID NO: 7) (peptide)
peptide: ITIRQHI
B19: phage-displayed peptide IQTNPTM (SEQ ID NO: 3) (peptide)
peptide: IQTNPTM
B20: phage-displayed peptide TRRHTII (SEQ ID NO: 18) (peptide)
peptide: TRRHTII
B21: phage-displayed peptide RRSNSQL (SEQ ID NO: 8) (peptide)
peptide: RRSNSQL
B22: phage-displayed peptide IHTRRRK (SEQ ID NO: 12) (peptide)
peptide: IHTRRRK
B23: phage-displayed peptide HLQLQRL (SEQ ID NO: 2) (peptide)
peptide: HLQLQRL
B24: phage-displayed peptide KTQLMII (SEQ ID NO: 16) (peptide)
peptide: KTQLMII

For one test, the target named is human claudin-1 (human) (UniProt O95832). Put plainly: competition with 5 µM RTS*-Cy5.5 on SW620 cells, confocal fluorescence; compared with unlabeled SPT*.
On to B1, for which the binding result is reported as “binds”.

The target of the next test is claudin-1 (CLDN1) extracellular loop mimetic peptide (Cldn1 53-80 with biotinylated C-terminus) (human) (UniProt O95832). In words: M13 phage display biopanning against the biotinylated claudin-1 fragment; strong binders eluted.
B2: the binding entry is on record as “binds”.
Same read-out and setting: in the case of B3 it was “binds”; in that of B4, “binds”.
On the same count and under the same terms, in the case of B5 it was “binds”; in that of B6, “binds”; in that of B7, “binds”.
On the same count and under the same terms, in the case of B8 it was “binds”; in that of B9, “binds”.
In the case of B10, the binding result is “binds”.
As to B11, the binding result is on record as “binds”.
The same measure, in the same setting: in the case of B12 it was “binds”; in that of B13, “binds”; in that of B14, “binds”.
As to B15, the binding result is given as “binds”.
On the same count and under the same terms, with B16 the entry was “binds”; with B17, “binds”; with B18, “binds”.
On the same count and under the same terms, in the case of B19 it was “binds”; in that of B20, “binds”; in that of B21, “binds”.
Still for that read-out and setting: in the case of B22 it was “binds”; in that of B23, “binds”; in that of B24, “binds”.
